The values are deposited in ChEMBL (CHEMBL3988442, “University of Dundee, Small-Polar-MMV Screening Library” (2021)).

A: 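Whole-cell growth test on Mycobacterium tuberculosis, read after 4 days in a medium based on cholesterol and the lipid DPPC; the read-out is not stated. Compounds at 50 µM. Higher reads as more growth inhibition (inferred: compounds with an IC50 in retests scored well above the rest). Size under these conditions: about 69,000 compounds, about 370 of them at 50% or above in at least one test.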
B: 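Phenotypic screen: M. tuberculosis growth, glucose 7H9 medium, 3 days; the read-out is not stated. Concentration: 50 µM. The record gives no direction; compounds that gave an IC50 in retests scored well above the rest, so higher reads as more growth inhibition. About 69,000 compounds were tested under these conditions; 1.1% (about 760) showed 50% or more at least once.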

The filed quantity is “Percent Effect” (%).
How 0% and 100% were set is not recorded. Most values in the screen are low, and negative values occur.
Compounds were drawn at random from those tested, without regard to their results.
Two or more numbers in one place are separate tests of the same structure; such repeats can differ widely.

SMILES	A	B
CC(C)N(CC(=O)Nc1cccc(C(=O)N(C)C)c1)C1CC1	7.737%	18.55% and -6.077%
CSC(C)CC(=O)N1CCC(n2ccnn2)CC1 (centres undefined)	8.49%	-7.494%
Cc1nc(N2CCN(C)CC2)ncc1C(=O)N1C[C@@H](C)[C@@](C)(O)C1	-14.04%	25.61%
O=C(O)C(F)(F)F.O=C(O)C(F)(F)F.O=C(O)C(F)(F)F.O=C1NC2(CCN(Cc3cccnc3)CC2)CC1c1cccnc1 (centres undefined)	-7.147%	-38.37%
Cc1nc(C)n(Cc2cccc(NC3CCN(C)C3=O)c2)n1 (centres undefined)	12.64%	24.78%
COC(=O)c1sccc1S(=O)(=O)N1CCC(Oc2cnccn2)CC1	-8.808%	-0.8095%
[H][C@]12CCN(C(=O)c3ccccc3F)C[C@@]1([H])OCCN(c1ncccn1)C2	24.91% and -13.44%	-12.15%
O=C(O)C(F)(F)F.[H][C@@]12CCCO[C@]1([H])[C@H](N(C)Cc1cncnc1)CN2C(=O)c1ccco1	-6.726%	2.64%
Cc1oc(C)c(C(=O)NCc2cccc(C(N)=O)c2)c1C	-4.372%	-3.793%
Cc1nonc1CN(C)CC1(O)CCCN(CCC2CCCCC2)C1=O (centres undefined)	-13.45%	0.2106%
CCN1C(=O)C2(CCOCC2)c2cc(NC(=O)c3cnoc3C)ccc21	-21.47%	53.38% and -1.818%
O=C(Nc1ccc(F)c(-n2cccc2)c1)NC1(CCO)CCOCC1	17.59%	56.41%
Nc1cc(N2CCCC(Cc3ccc(F)cc3F)(C(=O)O)C2)ncn1 (centres undefined)	-31.67%	-25.7%
Cc1ccc([C@H]2CN(CCO)C[C@@H]2NC(=O)CN2CCCCC2=O)o1	-7.678%	-8.985%
CCCc1nnc(N2CCN(c3cccc(C)c3C)CC2)o1	12.46% and 9.63%	1.233%
CC1(C)OCC2(CO1)CN(C(=O)c1ccccc1Cl)C2	-2.852%	9.723% and -2.254%
Cc1csc2ncnc(N3CCC(Cn4cc(C(C)(C)O)nn4)CC3)c12	-2.751%	-7.757%
CCn1cc(S(=O)(=O)NC2(CN3CCOCC3)CCCCC2)c(C)n1	9.899%	13.6%
CN1C[C@@H](NC(=O)c2ccccc2)C[C@H]1c1nc(-c2cnccn2)no1	-10.94%	-19.18% and -1.717%
CSc1ccc(C(CNC(=O)C2CC2)N2CCc3sccc3C2)cc1 (centres undefined)	-6.054%	43.11% and 23.4%
Cc1noc(C)c1-c1nc(C2CCCNC2)ccc1CO.Cl.Cl (centres undefined)	-5.807%	-13.83%
Cn1nnc(NCc2ccc(-c3ccc(Br)cc3)o2)n1	37.08%	73.92% and 13.45%
Cc1cccc(CNCc2ccc(NC(=O)NC(C)C)cc2)c1	-7.729%	-5.389%
O=C(Cc1ccc(S(=O)(=O)C(F)F)cc1)N1CCCC1	31.32%	25.33%
[H][C@]12CCN(C(=O)NCc3cccc(F)c3)C[C@@]1([H])OCCN(C)C2	5.126%	-4.262%
Cc1cc(=O)[nH]c(=O)n1-c1ccccc1Br	-8.905%	-4.524%
O=C(COCC(F)(F)C(F)F)N1CCC2(CCCN(CC3CC3)C2=O)C1 (centres undefined)	-8.897%	12.06%
Cc1csc2nc3n(c(=O)c12)CCN(Cc1ccccn1)CC3.Cl	10.52%	17.99%
N#Cc1ccnc(NCc2cc3n(n2)CCCN(C(=O)C2CCC2)C3)c1	20.35%	-8.785%
NC(=O)C1CCN(C(=O)CCCc2nnc(-c3ccccc3)o2)C1 (centres undefined)	-7.832%	18.46%
Cc1nn2cccnc2c1C(=O)N1CCCC(n2ccnc2)C1 (centres undefined)	-28.83%	-32.46%
Cn1ncc(N2CCOCC2)c(Cl)c1=O	-24.23%	-6.876%
Cc1nc(C)n(CCCNC(=O)C(C)n2ccnc2C(C)C)n1 (centres undefined)	4.882%	37.86%
CCc1nc(N)sc1C(=O)N1CCCC(CCc2ccccc2C)C1 (centres undefined)	9.571%	11.8%
CC(C)Nc1nc2c(c(NC3CC3)n1)CCN(C(=O)C1CCOC1)CC2 (centres undefined)	-4.699%	38.88% and -1.283%
O=C(O)C(F)(F)F.O=C1CC(c2ccncc2)C2(CCN(C(=O)c3ccc[nH]3)CC2)N1 (centres undefined)	-14.57%	-1.444%
CCCNC(=O)Cn1cc(C#N)c(=O)c2cc(Br)ccc21	-4.213%	-53.35%
CCOC(=O)C1CCN(C(=O)Cc2c(C)nc(C)[nH]c2=O)CC1	16.78%	17.36% and -0.3855%
CC(C)NC(=O)C1CN(C(=O)Nc2cccc(F)c2)CC12CCOCC2 (centres undefined)	-9.141%	5.227%
CCS(=O)(=O)Nc1ccn(Cc2cccc(Cl)c2)n1	-3.625%	-17.32%
O=C(O)C(F)(F)F.[H][C@@]12OCCN(Cc3ccoc3)[C@@]1([H])CC[C@H]2OCC	-0.568%	-14.01%
COc1nc2c(cc1C(=O)N1C[C@H](N)C[C@H]1C(=O)NC(C)C)CCC2	-9.436%	-7.734% and -0.3054%
CN(CC(=O)N1CCCC1c1cnn(C)c1)c1ccc(Cl)cn1 (centres undefined)	-13.6%	-12.06%

The last 5 entries again:

* CC(C)NC(=O)C1CN(C(=O)Nc2cccc(F)c2)CC12CCOCC2 (centres undefined) | A: -9.141%; B: 5.227%
* CCS(=O)(=O)Nc1ccn(Cc2cccc(Cl)c2)n1 | A: -3.625%; B: -17.32%
* O=C(O)C(F)(F)F.[H][C@@]12OCCN(Cc3ccoc3)[C@@]1([H])CC[C@H]2OCC | A: -0.568%; B: -14.01%
* COc1nc2c(cc1C(=O)N1C[C@H](N)C[C@H]1C(=O)NC(C)C)CCC2 | A: -9.436%; B: -7.734% and -0.3054%
* CN(CC(=O)N1CCCC1c1cnn(C)c1)c1ccc(Cl)cn1 (centres undefined) | A: -13.6%; B: -12.06%